# Whole data set: some 33,000 sequences, median “E-score (-0.5 to 0.5)” near -8e-05, cut for the highest 2% near 0.23. The list shows a part of the results.
# Target: T1, Nrg2 (UniProt P38082)
# T1 sequence: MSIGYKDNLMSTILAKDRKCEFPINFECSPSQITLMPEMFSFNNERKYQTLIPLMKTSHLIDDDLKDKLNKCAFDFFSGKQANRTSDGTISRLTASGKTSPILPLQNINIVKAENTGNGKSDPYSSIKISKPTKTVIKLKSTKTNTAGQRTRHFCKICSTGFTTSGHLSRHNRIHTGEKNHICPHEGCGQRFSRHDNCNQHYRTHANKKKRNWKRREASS
# Assay: PBM E-score (8-mer binding enrichment) (E-score (-0.5 to 0.5)); higher = stronger / more preferred TF binding
# Conditions: protein concentration: 100 nM; construct: GST-full length
# Summary of the method: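 Universal all-10-mer Agilent arrays, double-stranded by primer extension on fresh or once-stripped slides, were probed with about 100-200 nM GST-tagged yeast transcription factors made by PURExpress. Fluorescent anti-GST detected bound protein, and masliner normalised the scans. E-scores from the Universal PBM Analysis Suite were given to each ungapped eight-base word pooled with its reverse complement.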
row,Sequence,PBM E-score
1,GCTATAGC,-0.378
2,CCCCAGTC,-0.207
3,CAGCAATA,0.0267
4,AAGCTAGG,0.0218
5,GCCCTTTA,-0.0329
6,GCTTGTTA,0.0654
7,ACCACCAT,5e-05
8,AATAAGCT,0.0272
9,GATTTAAA,-0.0907
10,CGTCTTGC,0.0795
11,TCGGGAGA,-0.148
12,AATCTTCT,-0.0104
13,AGAATCCG,0.0839
14,CGACTAGC,-0.0669
15,ATGCCCCA,-0.0566
16,AGACACGG,0.0453
17,CTGTCTTA,0.0262
18,CAAGGAGG,-0.0206
19,GGCACCCC,-0.139
20,AGCCGAGA,-0.0537
21,AACAGAGC,-0.0666
22,CTGCGAAG,-0.281
23,ATAGACGC,0.178
24,CCGCTGCA,-0.0301
25,ATCAGGAA,0.13

# Individual results from the entries so far.
# PBM E-score, AACAGAGC reads -0.0666
# PBM E-score, CTGTCTTA reads 0.0262

# Going on with the list.

row,Sequence,PBM E-score
1,CTGTGACA,-0.062
2,AACATCTG,-0.161
3,CAACAACC,0.0175
4,CGAGCCAC,-0.236
5,CCTCTGAC,0.0885
6,CTAAGTTA,0.00065
7,AAGATCAT,0.0116
8,TCCTCAGA,-0.099
9,CGCGCAAG,0.109
10,ACATTTTG,0.0538
11,ACAGAAGA,0.129
12,GTACGCTA,-0.0055
13,ACCCACAT,0.0315
14,CCACAAAG,0.0649
15,CCGAATAA,0.14
16,ACGGTGTG,-0.1
17,CTGGGGAA,-0.113
18,AGAACCTC,-0.232
19,TAATTGTA,0.0762
20,CCGTAGCG,-0.176
21,ATCATCAC,-0.0296
22,ACTTCGCA,-0.0648
23,ACACCGTA,-0.0345
24,CAGGTAGC,-0.212
25,CCTCATCC,-0.204

# Reformatted: results already given.
row	Sequence	PBM E-score
4	CGAGCCAC	-0.236
7	AAGATCAT	0.0116
16	ACGGTGTG	-0.1
20	CCGTAGCG	-0.176
25	CCTCATCC	-0.204

# More entries follow:

row,Sequence,PBM E-score
1,CTACGGGC,-0.37
2,TCAAGTGA,-0.047
3,TGGGAAAA,0.0454
4,CAATGCGC,0.145
5,TCTCAGAA,-0.0951
6,AATATTGA,0.211
7,AAGCATTA,-0.0307
8,GACGTGCA,0.0768
9,CCCTACCC,0.00619
10,AATATTCG,0.177
11,AGGCCTCG,-0.235
12,AGATGACT,-0.0996
13,GCAAACGC,-0.00138
14,AAAAGAGG,-0.0519
15,CGACGCCG,-0.136
16,GAATTCGC,0.141
17,ATGCTCCA,0.0544
18,AAGGACGA,-0.0591
19,CAATCTCG,-0.0255
20,GACGTATC,-0.118
21,AGGTATAC,0.0544
22,ACCGGGCC,-0.0405
23,ACCGACAC,-0.0406
24,GCTTTGAC,-0.0203
25,TAGTAGGA,-0.042

row,Sequence,PBM E-score
1,TCCAACAA,-0.0146
2,ACTAACAA,0.098
3,CTCCATTA,-0.0503
4,CGTGCCAG,-0.201
5,AAGGTGAT,-0.0594
6,AGGCAGCA,0.192
7,CCTTAGAC,-0.209
8,ACCACAAA,0.0888
9,CCGACGAC,0.00776
10,AATATAAT,0.0957
11,ATCGTCCC,0.206
12,GTTGCCGA,-0.0807
13,AAGCGTCG,0.0195
14,GACCGAGA,0.169
15,AACCTCGC,0.142
16,CCCTCCAG,-0.101
17,TAACTTGA,-0.0171
18,GCCATCAA,-0.0366
19,CGTCTTCC,-0.14
20,CCTACGCA,-0.133
21,AGCCTACT,0.0296
22,AGTCGCTC,-0.0509
23,ATCTGAAC,-0.0161
24,ACTTCTGG,-0.18
25,CAGCATTC,0.00122

row,Sequence,PBM E-score
1,CATGACAC,0.164
2,CGATGCTA,0.0333
3,CAGGGTGA,-0.117
4,CGTGCGCA,0.049
5,CCCTAAGC,-0.161
6,CCAACATA,0.207
7,CAAGTCTG,-0.308
8,CTCTCATA,0.12
9,GTTCGGTA,0.0513
10,TGGCCGAA,-0.03
11,AACGGATG,-0.00493
12,CGTCTACA,-0.268
13,ACTTTGTG,0.164
14,GTTACATA,0.0456
15,ACGCGGGA,0.116
16,GCCTGCAC,-0.06
17,CGCCACGA,-0.217
18,ACCAAATA,0.207
19,CTTACTGA,0.0211
20,CGTTATGC,0.0998
21,CGGCCTAC,0.138
22,ACTTTGTA,-0.0538
23,CCCGATAG,-0.123
24,ATCTACAC,0.0466
25,CAATTCCA,-0.0703

# Fetched one by one from above (2):
row,Sequence,PBM E-score
14,GTTACATA,0.0456
12,CGTCTACA,-0.268

# Continued.

row,Sequence,PBM E-score
1,CCCCTACC,-0.0827
2,ACAAAAAG,-0.0161
3,ATGCTGAC,-0.0874
4,GAAGTAGA,0.141
5,ACAAGCAT,0.111
6,AGCCACAG,-0.134
7,TCACTGCA,0.167
8,TAAACGGA,0.0853
9,CGATGCTC,-0.152
10,CGATACGA,-0.00856
11,ACTTTTAT,-0.0597
12,GGGTAATA,0.15
13,ATCATTTG,0.149
14,TAGCGTGA,0.0132
15,TGGGTACA,-0.0706
16,AATAAGAT,0.0228
17,CGGCTCGC,0.00599
18,TTAGCGAA,0.0524
19,CATTGAAG,-0.186
20,CAGCAAAC,0.0686
21,GATATGTA,0.0697
22,CCCTACTA,-0.0215
23,CCGACCAC,-0.0556
24,AAATTACT,0.123
25,CTGCTAGC,-0.337

row,Sequence,PBM E-score
1,CTGAATTA,0.201
2,AGCGCAAT,0.0477
3,AACTCTGA,0.171
4,AGATCTTG,-0.0233
5,ACTAGGAC,-0.00051
6,GAAAGTGA,-0.0429
7,AACCAGAA,0.0493
8,AGGCATAA,0.0447
9,CTGCACTA,0.108
10,CAATATAG,0.131
11,CAGAAAGC,0.0226
12,ACGTCGAA,0.0356
13,GGTTTAAA,-0.0983
14,AAGTCCGT,-0.185
15,GTGCACAA,-0.0644
16,AGTACCGC,-0.0116
17,ATGGTCGG,-0.0431
18,ATTGTCTG,0.0469
19,AGCGACCG,-0.134
20,AACGGCGG,-0.0346
21,CAACAGGG,0.312
22,CTTGTTCA,0.0002

# Source: the supplement of paper PMC3334620
